# Results taken from the supplement of paper PMC8728848.
# The other results are listed elsewhere or left out.
# Tests used:
# Assay in all cases: glycan array binding signal (z-score within array); higher = stronger binding
# Conditions in all cases: glycan notation: IUPAC condensed, linker removed
# [1] = target: Neu5Ac(a2-6)Gal(b1-4)GlcNAc(b1-6)GalNAc
# Procedure, shortened: (§1)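 The binding signal is a Z-score computed within each array and averaged over linkers. Arrays of the same protein sequence at different concentrations or buffers were also averaged together. Data originate from 3228 arrays in the Consortium for Functional Glycomics database, kept only where the protein sequence was available.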
# [2] = target: Neu5Ac(a2-6)Gal(b1-4)GlcNAc(b1-6)[Gal(b1-3)GlcNAc(b1-3)]Gal(b1-4)Glc
# Procedure, shortened: as §1
# [3] = target: Neu5Ac(a2-6)Gal(b1-4)GlcNAc(b1-6)[Gal(b1-3)]GalNAc
# Procedure, shortened: as §1
# [4] = target: Neu5Ac(a2-6)Gal(b1-4)GlcNAc6S
# Procedure, shortened: as §1
# [5] = target: Neu5Ac(a2-6)GalNAc
# Procedure, shortened: as §1
# [6] = target: Neu5Ac(a2-6)GalNAc(b1-4)GlcNAc
# Procedure, shortened: as §1
# [7] = target: Neu5Ac(a2-6)GalNAc(b1-4)GlcNAc6S
# Procedure, shortened: as §1
# [8] = target: Neu5Ac(a2-6)GlcNAc(b1-4)GlcNAc
# Procedure, shortened: as §1
# [9] = target: Neu5Ac(a2-6)GlcNAc(b1-4)GlcNAc(b1-4)GlcNAc
# Procedure, shortened: as §1
# [10] = target: Neu5Ac(a2-8)Neu5Ac
# Procedure, shortened: as §1
# [11] = target: Neu5Ac(a2-8)Neu5Ac(a2-3)Gal(b1-3)GalNAc(b1-4)[Neu5Ac(a2-3)]Gal(b1-4)Glc
# Procedure, shortened: as §1
# [12] = target: Neu5Ac(a2-8)Neu5Ac(a2-3)Gal(b1-3)GalNAc(b1-4)[Neu5Ac(a2-8)Neu5Ac(a2-3)]Gal(b1-4)Glc
# Procedure, shortened: as §1
# [13] = target: Neu5Ac(a2-8)Neu5Ac(a2-3)Gal(b1-4)Glc
# Procedure, shortened: as §1
# [14] = target: Neu5Ac(a2-8)Neu5Ac(a2-3)Gal(b1-4)GlcNAc
# Procedure, shortened: as §1
# [15] = target: Neu5Ac(a2-8)Neu5Ac(a2-3)[Gal(b1-3)GalNAc(b1-4)]Gal(b1-4)Glc
# Procedure, shortened: as §1
# [16] = target: Neu5Ac(a2-8)Neu5Ac(a2-3)[GalNAc(b1-4)]Gal(b1-4)Glc
# Procedure, shortened: as §1
# [17] = target: Neu5Ac(a2-8)Neu5Ac(a2-8)Neu5Ac
# Procedure, shortened: as §1
# [18] = target: Neu5Ac(a2-8)Neu5Ac(a2-8)Neu5Ac(a2-3)Gal(b1-4)Glc
# Procedure, shortened: as §1
# [19] = target: Neu5Ac(a2-8)Neu5Ac(a2-8)Neu5Ac(a2-3)[Gal(b1-3)GalNAc(b1-4)]Gal(b1-4)Glc
# Procedure, shortened: as §1
# [20] = target: Neu5Ac(a2-8)Neu5Ac(a2-8)Neu5Ac(a2-3)[GalNAc(b1-4)]Gal(b1-4)Glc
# Procedure, shortened: as §1
# [21] = target: Neu5Ac(a2-8)Neu5Ac(a2-8)Neu5Ac(a2-8)Neu5Ac(a2-3)[GalNAc(b1-4)]Gal(b1-4)Glc
# Procedure, shortened: as §1
# [22] = target: Neu5Ac(a2-8)Neu5Gc(a2-3)Gal(b1-4)GlcNAc
# Procedure, shortened: as §1
# [23] = target: Neu5Ac(b2-6)Gal(b1-4)GlcNAc
# Procedure, shortened: as §1
# [24] = target: Neu5Ac(b2-6)GalNAc
# Procedure, shortened: as §1
# [25] = target: Neu5Ac9Ac(a2-3)Gal(b1-3)GlcNAc
# Procedure, shortened: as §1
# [26] = target: Neu5Ac9Ac(a2-3)Gal(b1-4)GlcNAc
# Procedure, shortened: as §1
# [27] = target: Neu5Ac9Ac(a2-6)Gal(b1-4)GlcNAc
# Procedure, shortened: as §1
# [28] = target: Neu5Gc(a2-3)Gal(b1-3)GlcNAc
# Procedure, shortened: as §1
# [29] = target: Neu5Gc(a2-3)Gal(b1-3)[Fuc(a1-4)]GlcNAc
# Procedure, shortened: as §1
# [30] = target: Neu5Gc(a2-3)Gal(b1-4)Glc
# Procedure, shortened: as §1
# [31] = target: Neu5Gc(a2-3)Gal(b1-4)GlcNAc
# Procedure, shortened: as §1
# [32] = target: Neu5Gc(a2-3)Gal(b1-4)GlcNAc(b1-3)Gal(b1-4)GlcNAc(b1-2)Man(a1-3)[Neu5Gc(a2-3)Gal(b1-4)GlcNAc(b1-3)Gal(b1-4)GlcNAc(b1-2)Man(a1-6)]Man(b1-4)GlcNAc(b1-4)GlcNAc
# Procedure, shortened: as §1
# [33] = target: Neu5Gc(a2-3)Gal(b1-4)[Fuc(a1-3)]GlcNAc
# Procedure, shortened: as §1
# [34] = target: Neu5Gc(a2-6)Gal(b1-4)GlcNAc
# Procedure, shortened: as §1
# [35] = target: Neu5Gc(a2-6)GalNAc
# Procedure, shortened: as §1
# [36] = target: Neu5Gc(a2-8)Neu5Ac(a2-3)Gal(b1-4)GlcNAc
# Procedure, shortened: as §1
# [37] = target: Neu5Gc(a2-8)Neu5Gc(a2-3)Gal(b1-4)GlcNAc
# Procedure, shortened: as §1
# [38] = target: Neu5Gc(a2-8)Neu5Gc(a2-3)Gal(b1-4)GlcNAc(b1-3)Gal(b1-4)GlcNAc
# Procedure, shortened: as §1
binder,measurement,setting,value
PX14343G-pdi-535-24-535 (Parabacteroides distasonis) (protein) LDTVPKDQLAPSTTWQTEADAKGFIVGCYKDLLDGNTLLYLDCGSDIGYNNFPWEGFRPWGDGSLSSSNPGQILYDYKSIRKANTFLENVDKVTFSSDAVKANYVAQAKAIRAYKYFLMNWWYGGVPIISSYSSADEAKVERNTEQEVRDYIAKDLDEALAGIAEAPEARGYIAKGAVLAIKMREALYYGDWQKAKDAAKAIIDLKQYELDPDYTNLFKVSGVDSKEIILADQNIETLDGLGTIGQMYNNVDQGWSSIVPTQNLVDMYEMSDGLTKEESKTYDAKHPFANRDPRMAMTILYPGRDWRGDVLNTLDEKLQDGTVNKNFPTYTDNASKSALTWAKYLDPMDQYGDVWSSGACPIVFRYAEVLLTYAEAANELSGPSDEIYGYLNQIRQRVGMGEVDKAKYGTKDKLRELIRRERTVELAGEGLRRADIVRWQEDGKMLAEKVMNGDLLRVTGTINYGESEPTKRAEITGTAVIETRQFSSRNRYLPIPQTSMDKNPNLKQNPGY,glycan array binding signal (z-score),[1],-0.863
same,glycan array binding signal (z-score),[2],-0.797
same,glycan array binding signal (z-score),[3],-0.369
same,glycan array binding signal (z-score),[4],-0.215
same,glycan array binding signal (z-score),[5],-0.874
same,glycan array binding signal (z-score),[6],-0.103
same,glycan array binding signal (z-score),[7],-0.091
same,glycan array binding signal (z-score),[8],-0.538
same,glycan array binding signal (z-score),[9],-0.581
same,glycan array binding signal (z-score),[10],0.537
same,glycan array binding signal (z-score),[11],-0.712
same,glycan array binding signal (z-score),[12],0.598
same,glycan array binding signal (z-score),[13],-0.191
same,glycan array binding signal (z-score),[14],-0.855
same,glycan array binding signal (z-score),[15],-0.889
same,glycan array binding signal (z-score),[16],-0.521
same,glycan array binding signal (z-score),[17],-0.443
same,glycan array binding signal (z-score),[18],-0.447
same,glycan array binding signal (z-score),[19],0.2
same,glycan array binding signal (z-score),[20],-1.06
same,glycan array binding signal (z-score),[21],-0.61
same,glycan array binding signal (z-score),[22],16.3
same,glycan array binding signal (z-score),[23],0.883
same,glycan array binding signal (z-score),[24],-0.479
same,glycan array binding signal (z-score),[25],0.039
same,glycan array binding signal (z-score),[26],-0.968
same,glycan array binding signal (z-score),[27],0.187
same,glycan array binding signal (z-score),[28],0.395
same,glycan array binding signal (z-score),[29],0.295
same,glycan array binding signal (z-score),[30],-0.053
same,glycan array binding signal (z-score),[31],-0.132
same,glycan array binding signal (z-score),[32],-0.198
same,glycan array binding signal (z-score),[33],-0.269
same,glycan array binding signal (z-score),[34],-0.687
same,glycan array binding signal (z-score),[35],0.744
same,glycan array binding signal (z-score),[36],0.119
same,glycan array binding signal (z-score),[37],-0.699
same,glycan array binding signal (z-score),[38],-0.772

# Reformatted: results already given
binder	measurement	setting	value
PX14343G-pdi-535-24-535 (Parabacteroides distasonis) (protein) LDTVPKDQLAPSTTWQTEADAKGFIVGCYKDLLDGNTLLYLDCGSDIGYNNFPWEGFRPWGDGSLSSSNPGQILYDYKSIRKANTFLENVDKVTFSSDAVKANYVAQAKAIRAYKYFLMNWWYGGVPIISSYSSADEAKVERNTEQEVRDYIAKDLDEALAGIAEAPEARGYIAKGAVLAIKMREALYYGDWQKAKDAAKAIIDLKQYELDPDYTNLFKVSGVDSKEIILADQNIETLDGLGTIGQMYNNVDQGWSSIVPTQNLVDMYEMSDGLTKEESKTYDAKHPFANRDPRMAMTILYPGRDWRGDVLNTLDEKLQDGTVNKNFPTYTDNASKSALTWAKYLDPMDQYGDVWSSGACPIVFRYAEVLLTYAEAANELSGPSDEIYGYLNQIRQRVGMGEVDKAKYGTKDKLRELIRRERTVELAGEGLRRADIVRWQEDGKMLAEKVMNGDLLRVTGTINYGESEPTKRAEITGTAVIETRQFSSRNRYLPIPQTSMDKNPNLKQNPGY	glycan array binding signal (z-score)	[19]	0.2
same	glycan array binding signal (z-score)	[20]	-1.06
